Reference: article doi:10.1101/2024.11.25.625148
Changes are numbered by the printed parent chain. Where two headings read alike, the source gives them in different places. These are yes or no findings as the source states them, for the method shown. Binding seen in cells or lysates may run through a third protein. Binding can be weak; no strength is given.

Protein sequences, listed by entry. Tags and fused reporters are not part of them. Lines headed by an entry give the natural chain unless they say otherwise; changes in a name come on top.
UniProt Q60932: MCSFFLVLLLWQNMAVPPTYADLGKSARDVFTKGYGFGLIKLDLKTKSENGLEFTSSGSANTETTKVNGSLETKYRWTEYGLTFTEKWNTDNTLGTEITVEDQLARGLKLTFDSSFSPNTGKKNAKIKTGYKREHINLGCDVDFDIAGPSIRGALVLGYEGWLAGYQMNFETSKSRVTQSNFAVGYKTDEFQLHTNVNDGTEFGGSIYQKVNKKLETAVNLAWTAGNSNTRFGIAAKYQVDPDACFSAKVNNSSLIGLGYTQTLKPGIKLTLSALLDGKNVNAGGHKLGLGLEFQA

Experiments:
Assay in all cases: co-IP
[1] = target: T1, adenine nucleotide translocase 2 (ANT2) (mouse (endogenous in HL-1 cells and mouse myocardium)) (UniProt P51881)
T1 sequence: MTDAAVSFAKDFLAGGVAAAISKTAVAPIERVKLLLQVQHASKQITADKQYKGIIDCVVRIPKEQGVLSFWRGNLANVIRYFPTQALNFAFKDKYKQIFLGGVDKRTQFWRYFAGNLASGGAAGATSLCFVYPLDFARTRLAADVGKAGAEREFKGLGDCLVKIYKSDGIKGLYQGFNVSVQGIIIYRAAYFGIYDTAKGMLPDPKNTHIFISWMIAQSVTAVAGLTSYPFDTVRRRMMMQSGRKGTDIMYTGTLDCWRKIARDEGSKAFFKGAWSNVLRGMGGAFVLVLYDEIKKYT

[2] = target: T2, ANT2 expressed in mouse myocardium by AAV9 (human) (UniProt P05141)
T2 sequence: T1 sequence with R111L, K155R, F211V, S219T, S267G

[3] = target: T3, ANT2 stably expressed in HL-1 cells (Lv-ANT2) (human) (UniProt P05141)
T3 sequence: T1 sequence with R111L, K155R, F211V, S219T, S267G

[4] = target: T4, ANT2-K163R expressed in mouse myocardium by AAV9 (human) (UniProt P05141)
T4 sequence: T1 sequence with R111L, K155R, K163R, F211V, S219T, S267G

[5] = target: T5, ANT2-K163R stably expressed in HL-1 cells (Lv-ANT2-K163R) (human) (UniProt P05141)
T5 sequence: T1 sequence with R111L, K155R, K163R, F211V, S219T, S267G

[6] = target: T1, adenine nucleotide translocase 2 (ANT2) (mouse (endogenous in HL-1 cells and mouse myocardium)); remark: listed apart in the source

Measured: binding

voltage-dependent anion-selective channel 1 (VDAC1) (from UniProt Q60932)
binds: all assays above
